# Results deposited as PubChem BioAssay AID504774 (Drosophila RNAi Screening Center, 2011)
# Test: 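Fly genes whose loss alters survival after alkylation damage to DNA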 (primary screen)
# Cells: Drosophila Kc167 cells
# Reagents: long dsRNA against Drosophila genes, about 0.25 µg dsRNA per well
# Duration: about 6 days: 3 days knock-down, then 3 days with or without MMS
# Conditions: methyl methanesulphonate 0.004% (w/v) for 3 days after knock-down
# Read-out: 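Viability in wells given MMS, read as ATP luminescence, normalised by quantiles plate by plate and averaged across replicates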
# Scale: mean viability with MMS and viability with MMS: higher = more surviving cells after MMS
# The screen tested about 23,000 reagents; this is an unselected part of those with a known target gene and a result. 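Values are quantile-normalised luminescence on an arbitrary scale; higher means more cells surviving MMS.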 Reagents against one gene are numbered here. Further read-outs or replicates are left out here.
predicted target,reagent no.,mean viability with MMS,"viability with MMS, replicate 1"
pyd3,1,3.57e6,4.08e6
pyd3,2,3.47e6,3.95e6
spirit (Serine Protease Immune Response Integrator),1,3.69e6,4.45e6
Pak (p21-activated kinase),1,3.47e6,3.94e6
Pak (p21-activated kinase),2,3.59e6,4.05e6
CG31077,1,3.44e6,3.92e6
CG7369,1,3.48e6,3.94e6
PIG-C (Phosphatidylinositol glycan anchor biosynthesis class C),1,3.48e6,3.99e6
Tps1 (Trehalose-6-phosphate synthase 1),1,3.57e6,4.06e6
CG11334,1,3.46e6,3.99e6
CG11334,2,3.62e6,4.06e6
CG7914,1,3.59e6,4.07e6
Txl (Thioredoxin-like),1,3.35e6,3.86e6
alphaTry (alphaTrypsin),1,3.82e6,4.71e6
Tsp42Ej (Tetraspanin 42Ej),1,3.55e6,3.93e6
CG12560,1,3.67e6,4.23e6
Rnf146 (Ring finger protein 146),1,3.77e6,4.35e6
CG11307,1,3.47e6,3.88e6
mRpL18 (mitochondrial ribosomal protein L18),1,3.54e6,4.03e6
CG4318,1,3.45e6,3.91e6
CG14252,1,3.54e6,4.11e6
brk (brinker),1,2.99e6,3.53e6
brk (brinker),2,3.52e6,4.11e6
pix (pixie),1,3.06e6,3.55e6
CG6153,1,3.61e6,4.16e6
Osi16 (Osiris 16),1,3.44e6,4.02e6
Osi16 (Osiris 16),2,3.58e6,4.03e6
"ATPsynE (ATP synthase, subunit E)",1,3.67e6,4.17e6

Sorted by “viability with MMS, replicate 1” (ascending): 3 of the entries above.
predicted target,reagent no.,mean viability with MMS,"viability with MMS, replicate 1"
Pak (p21-activated kinase),1,3.47e6,3.94e6
Pak (p21-activated kinase),2,3.59e6,4.05e6
spirit (Serine Protease Immune Response Integrator),1,3.69e6,4.45e6
